Measurements from PubChem BioAssay AID2685 (National Center for Advancing Translational Sciences (NCATS), 2010).
The list shows a part of the results. Shown are side measurements of this screen, not its main read-out; they come without a call. Compounds called inactive in the main read-out are mostly missing here. Potencies come from curve fits of mixed quality, noted in brackets.

Test: qHTS Assay for Lipid Storage Modulators in Drosophila S3 Cells;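 on cell number change: cells counted by Cell Tracker Red CMTPX staining in the red channel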
Conditions: BODIPY lipid droplet fluorescence, 18-24 h; for cell number change: measured here: cell count max response, cells fed with added oleic acid
Outline: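 Laser-scanning cytometry quantifies lipid droplet accumulation (500–530 nm total intensity; droplet/cell object ratio) in oleic acid-fed (400 uM added) Drosophila S3 cells treated with a concentration series. 20 uM Triacsin C defined 100% inhibition.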

[1] = measured here: cell number channel AC50, cells fed with added oleic acid
[2] = measured here: lipid fluorescence (Fed channel) AC50, cells fed with added oleic acid

SMILES	cell number change	AC50 [1]	AC50 [2]
O=C(Nc1cccc(NC(=O)c2cccs2)c1)c1ccc(Br)o1	-31.4%	32.6 µM [falling, single point]	29.1 µM [falling, single point]
CN(C(=O)CC(=O)Nc1ccc(Cl)c(Cl)c1)c1ccccc1			29.1 µM [rising, single point]
Cc1ccc(C(=O)NCCNC(=O)c2ccccn2)cc1			35.5 µM [falling, single point]
Cc1ccccc1NC(=O)Cc1nc(CN(C)CC(=O)Nc2cccc(F)c2)cs1	-24.4%		
Cc1cc(C(F)F)n2nc(C(=O)Nc3cccnc3Cl)nc2n1	1.09%		2.91 µM [falling, partial curve, poor fit]
O=C(O)/C=C\C(=O)Nc1ccccc1C(=O)N1CCN(c2ccc(Cl)cc2)CC1	22.5%		8.2 µM [falling, partial curve, poor fit]
CCOCCCNC(=S)NNC(=O)CCn1nc(C)c(Br)c1C		6.51 µM [rising, single point]	1.84 µM [rising, partial curve]
Cc1cc(C(=O)COC(=O)CCCN2C(=O)c3ccccc3C2=O)c(C)n1C	1.42%		0.0058 µM [rising, full curve, poor fit]
Cc1c(C(=O)OCc2nc3scc(-c4ccccc4)c3c(=O)[nH]2)cccc1[N+](=O)[O-]	33.5%	6.51 µM [rising, full curve, poor fit]	
CCC(OC(=O)c1ccco1)C(=O)NC1CCCC1 (centres undefined)	10.4%		29.1 µM [rising, single point]
COc1ccc(-c2nc(S(=O)(=O)c3ccc(C)cc3)c(N3CCCC3)o2)cc1	-104%	4.11 µM [falling, full curve]	4.11 µM [falling, full curve]
CCn1cc(C(=O)NN)c(=O)c2cc(F)c(N3CCN(C)CC3)cc21	9.72%		
C/C(=N\NC(=O)CSc1nc2nc(C)cc(C)n2n1)c1ccccc1	-15.6%		0.291 µM [rising, full curve]
COc1ccc(NS(=O)(=O)c2cccc(NC(=O)C3=NN(c4ccccc4)C(=O)CC3)c2)cc1	-44.6%	14.6 µM [falling, partial curve, poor fit]	6.51 µM [falling, single point]
COc1ccc(OCCCC(=O)Nc2ccc(N3CCOCC3)cc2)cc1	7.93%		20.6 µM [rising, partial curve, poor fit]
O=[N+]([O-])c1ccc(S(=O)(=O)NCC(c2cccnc2)N2CCOCC2)cc1 (centres undefined)	26.2%		29.1 µM [rising, single point]
COc1ccccc1NS(=O)(=O)c1cc(NC(C)=O)ccc1N1CCCCC1	36.9%	2.59 µM [rising, full curve]	
COc1ccc(S(=O)(=O)N(C)CC(=O)Nc2c(F)cccc2F)cc1	51.1%	18.4 µM [rising, single point]	
Cc1ccc(C(F)(F)F)cc1NC(N)=S	-1.55%	0.00517 µM [falling, full curve, poor fit]	
COc1ccc(CNC(=O)CN(C(=O)CCC(=O)Nc2ccccn2)c2cccc(C)c2C)cc1	12.5%		6.51 µM [rising, single point]
COCc1cc(C)nc(SCC(=O)N2CCC(C)CC2)c1C#N		6.51 µM [rising, single point]	6.51 µM [rising, single point]

SMILES	cell number change	AC50 [1]	AC50 [2]
C/C(=C\c1ccccc1)C(=O)Nc1nc2ccc([N+](=O)[O-])cc2s1	3.06%		1.16 µM [falling, full curve]
O=C(c1cc2ccccc2o1)N1CCN=C1SCc1cccnc1	-15%		
Cc1nc2ccc([N+](=O)[O-])cc2s1	-24.4%		
CN(C)S(=O)(=O)c1cccc(C(=O)Nc2ccccc2)c1	42.3%		0.058 µM [rising, full curve, poor fit]
COc1cccc(CN2CCNC(=O)C2CC(=O)NC2Cc3ccccc3C2)c1 (centres undefined)	-22.8%		29.1 µM [falling, single point]
N/C(=N\OC(=O)c1cc(-c2ccccc2)nc2ccccc12)c1cccnc1	16.7%	3.26 µM [rising, single point]	
O=S(=O)(c1ccccc1)c1cnc(-c2ccccc2)nc1N1CCCCC1	14.4%		2.31 µM [rising, full curve]
CC1COC2C(O1)N(S(C)(=O)=O)CCN2S(C)(=O)=O (centres undefined)	-26.8%	0.0326 µM [falling, full curve, poor fit]	
CN1C(=O)[C@@H]2[C@H](C1=O)[C@@H]1C(=O)Nc3ccccc3C(=O)N1[C@@H]2c1ccc(Br)cc1	5.02%		1.64 µM [falling, partial curve, poor fit]
COc1cccc(C2/C(=C(\O)c3ccc4c(c3)OCCO4)C(=O)C(=O)N2CCCN2CCOCC2)c1OC (centres undefined)	32.3%	29.1 µM [rising, single point]	
Nc1c(-c2ccc(F)cc2)cnn1C1CCS(=O)(=O)C1 (centres undefined)	1.47%		3.26 µM [falling, full curve]
N#Cc1ccccc1OCC(=O)OCC(=O)c1ccc[nH]1	-5.49%	0.82 µM [falling, partial curve]	0.82 µM [falling, full curve]
COc1ccc(-c2nnc3c4ccccc4c(C)nn23)cc1	1.57%		0.0731 µM [rising, full curve, poor fit]
CCC(=O)N1CCc2cc(S(=O)(=O)Nc3ccc4c(c3)OCCO4)ccc21	-21.9%		
N#Cc1c(NC(=O)CSc2ncn[nH]2)sc2c1CCCC2			29.1 µM [rising, single point]
OCC1CCCN(C(=S)Nc2ccc(Nc3ccccc3)cc2)C1 (centres undefined)	-21%	2.31 µM [falling, single point]	3.66 µM [falling, partial curve]
CC1=C(C(=O)Nc2cccc(C(=O)N3CCC(C(N)=O)CC3)c2)SCCO1	-33%	4.61 µM [falling, full curve]	
Cc1nc(N2CCN(c3ccccc3)CC2)[nH]c(=O)c1Cc1cccc2ccccc12	29.3%		
Cn1c(/C=N/n2cnnc2)nc2ccccc21	64.1%	14.6 µM [rising, single point]	
O=C(O)c1ccccc1SCc1cn2ccccc2n1	-33.2%	1.84 µM [falling, partial curve, poor fit]	0.116 µM [falling, full curve, poor fit]
C/C(CC(=O)Nc1ccc([N+](=O)[O-])cc1)=N/NC(=O)C1C2CCCCC21 (centres undefined)	39.1%	3.26 µM [rising, full curve]	6.51 µM [rising, partial curve, poor fit]

SMILES	cell number change	AC50 [1]	AC50 [2]
Cc1ccc(N2CC(O)Cn3c2nc2c3c(=O)[nH]c(=O)n2C)cc1 (centres undefined)	21.7%		
Cc1c(Cc2ccccc2)c(=O)oc2cc(OCc3ccc(C(=O)O)cc3)ccc12	30.3%		
Cc1ccc(-n2ncc3c(NNC(=O)c4ccco4)ncnc32)cc1Cl			16.4 µM [falling, single point]
COc1ccc(CNC(=O)CSC(=S)N2CCCC2)cc1	-25%	0.731 µM [rising, partial curve, poor fit]	23.1 µM [rising, partial curve]
COc1cc(C(=O)NCC(=O)OCn2nnc3ccccc3c2=O)cc(OC)c1OC		1.64 µM [falling, partial curve]	
COc1ccccc1CC(=O)Nc1ccc(-c2noc(COc3cccc(C)c3C)n2)cc1	8.67%		
CCOC(=O)C1=C(C)NC(=S)NC1c1ccc(OCC(=O)N2CCCCC2)cc1 (centres undefined)			0.517 µM [falling, partial curve]
c1ccc2c(c1)nnn1c3ccccc3nc21	4.75%		0.651 µM [rising, full curve, poor fit]
CCN(C(=O)COC(=O)c1cccnc1SC)C1CCS(=O)(=O)C1 (centres undefined)	-12%		0.116 µM [falling, full curve]
COc1ccc(NC(=O)CSc2nnc(C)n2C2CC2)cc1S(=O)(=O)N1CCOCC1	-0.0651%		1.3 µM [falling, full curve]
COC(=O)[C@@H]1C(c2ccccc2)(c2ccccc2)[C@@]1(C)C(=O)OC	-7.95%		6.51 µM [falling, single point]
Cc1ccc2[nH]c(C)c(/C=N/Nc3nc4ccccc4s3)c2c1	-30.4%	20.6 µM [falling, single point]	
CCOCCCn1c(SCC(=O)NCc2ccco2)nc2c(sc3ccccc32)c1=O	7.32%		0.731 µM [rising, full curve, poor fit]
Cc1cc2c(cc1S(=O)(=O)CCC(=O)NCCc1ccccc1)OCC(=O)N2	12.4%		
COc1ccccc1CNS(=O)(=O)c1cc(CN2C(=O)c3cccnc3C2=O)ccc1OC	2.67%		0.0731 µM [falling, single point]
COc1cc(OC)cc(C(=O)N[C@H](C(=O)OCC(=O)Nc2ccc(C)cc2C)C(C)C)c1	45.2%	1.84 µM [rising, partial curve]	0.116 µM [rising, single point]
COc1ccc(NC(=O)CN2CCc3ccccc3C2)c([N+](=O)[O-])c1	-18%		
Cc1ccc(S(=O)(=O)N(C)c2nonc2C)cc1	3.57%		
O=C(c1ccc(Cl)cc1)N1CCOc2ccccc21	-55.2%	20.6 µM [falling, single point]	29.1 µM [falling, single point]

Rewritten field by field: two of the compounds above
Cc1ccccc1NC(=O)Cc1nc(CN(C)CC(=O)Nc2cccc(F)c2)cs1
  cell number change: -24.4%
Cc1cc(C(F)F)n2nc(C(=O)Nc3cccnc3Cl)nc2n1
  cell number change: 1.09%
  AC50 [2]: 2.91 µM [falling, partial curve, poor fit]
